Results on one substance are retold here after PMC10584876.

By UniProt entry, the sequences of proteins in these tests, tags left out.
UniProt O18640: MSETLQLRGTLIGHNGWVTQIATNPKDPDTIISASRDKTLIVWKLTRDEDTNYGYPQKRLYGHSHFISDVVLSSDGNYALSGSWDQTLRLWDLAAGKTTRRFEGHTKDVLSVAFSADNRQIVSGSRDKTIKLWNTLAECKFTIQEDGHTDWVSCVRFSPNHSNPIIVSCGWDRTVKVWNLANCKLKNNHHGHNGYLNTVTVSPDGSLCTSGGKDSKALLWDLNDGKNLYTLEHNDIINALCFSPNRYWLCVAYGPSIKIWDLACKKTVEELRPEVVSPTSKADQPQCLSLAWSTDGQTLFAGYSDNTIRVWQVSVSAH

Results are given in words; binding and its absence hold for the method and conditions named. In cells and extracts the contact can be indirect. Some results given as binding are weak or reduced against the parent protein; the word gives no strength. Sequences can lack the tags named with a protein.

This assay has as its target T1, Cofilin-GFP (Drosophila) (UniProt P45594).
T1 sequence: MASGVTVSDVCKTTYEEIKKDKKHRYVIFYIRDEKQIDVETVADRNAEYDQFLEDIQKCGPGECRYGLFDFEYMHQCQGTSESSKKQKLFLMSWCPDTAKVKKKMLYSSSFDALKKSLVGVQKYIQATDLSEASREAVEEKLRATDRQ
The assay is described as follows: co-IP; da-GAL4 > UAS-Cofilin-GFP adult head extracts, anti-GFP antibody, Protein A/G Agarose, western blot. (In general: Immunoblotting shows a protein as a band on a membrane.)

With “RACK1 (Receptor for activated C kinase 1) (from UniProt O18640 1-318)”, the binding result was “binds”.
